This passage reports binding results from article PMC5063989.

Protein sequences, listed by entry. Tags and fused reporters are not part of them.
UniProt P63025: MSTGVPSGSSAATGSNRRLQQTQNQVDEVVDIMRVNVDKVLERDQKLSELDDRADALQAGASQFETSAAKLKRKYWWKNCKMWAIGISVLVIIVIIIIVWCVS

Test [1] deals with T1, Na+/K+/2Cl- co-transporter NKCC2 (rat (endogenous in TAL suspensions)) (UniProt P55016).
T1 sequence: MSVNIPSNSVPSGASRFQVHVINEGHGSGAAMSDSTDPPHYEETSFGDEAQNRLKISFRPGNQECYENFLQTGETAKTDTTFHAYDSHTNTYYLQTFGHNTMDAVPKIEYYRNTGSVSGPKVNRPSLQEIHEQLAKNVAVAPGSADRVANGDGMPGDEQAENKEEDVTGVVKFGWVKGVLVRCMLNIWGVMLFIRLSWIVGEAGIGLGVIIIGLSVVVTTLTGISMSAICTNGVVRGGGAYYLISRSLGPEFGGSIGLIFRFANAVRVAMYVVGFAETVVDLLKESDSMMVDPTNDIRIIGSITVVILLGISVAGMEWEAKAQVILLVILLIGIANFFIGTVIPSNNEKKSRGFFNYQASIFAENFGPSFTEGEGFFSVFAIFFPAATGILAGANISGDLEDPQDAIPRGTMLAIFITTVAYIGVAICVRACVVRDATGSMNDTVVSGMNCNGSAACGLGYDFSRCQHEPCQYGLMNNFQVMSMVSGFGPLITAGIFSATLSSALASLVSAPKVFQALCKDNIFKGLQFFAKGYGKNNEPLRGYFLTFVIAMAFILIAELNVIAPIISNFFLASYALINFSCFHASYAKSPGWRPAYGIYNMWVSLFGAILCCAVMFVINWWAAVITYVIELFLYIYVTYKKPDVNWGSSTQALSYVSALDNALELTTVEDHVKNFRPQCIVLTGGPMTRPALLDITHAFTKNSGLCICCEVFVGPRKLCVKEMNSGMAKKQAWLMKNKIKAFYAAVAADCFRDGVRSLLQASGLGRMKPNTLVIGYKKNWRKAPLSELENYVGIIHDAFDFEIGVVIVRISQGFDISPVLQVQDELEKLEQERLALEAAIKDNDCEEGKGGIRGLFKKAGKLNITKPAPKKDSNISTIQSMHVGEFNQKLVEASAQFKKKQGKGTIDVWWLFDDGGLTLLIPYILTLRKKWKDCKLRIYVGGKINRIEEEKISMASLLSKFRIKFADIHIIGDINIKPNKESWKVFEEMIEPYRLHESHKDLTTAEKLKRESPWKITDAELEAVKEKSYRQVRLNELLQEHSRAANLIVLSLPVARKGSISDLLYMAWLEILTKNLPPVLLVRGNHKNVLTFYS
As to the kind of experiment: co-IP; endogenous NKCC2 immunoprecipitated from 200 ug of TAL lysate with rabbit IgG against NKCC2, overnight at 4 C, protein G/protein A agarose; buffer 100 mM NaCl, 50 mM HEPES pH 7.5, 5 mM EDTA, 1% Triton X-100, 1% CHAPS; washes incl. 500 mM Na+ HEPES; Western blot for NKCC2 and VAMP3. Background: A western blot detects proteins with antibodies after separation by electrophoresis.

The target in test [2] is Vesicle-associated membrane protein 3 (VAMP3) (rat (endogenous in TAL suspensions)) (UniProt P63025). The experiment in a line: co-IP; reciprocal: endogenous VAMP3 immunoprecipitated from 100 ug of TAL lysate with 5 ug rabbit IgG against VAMP3; Western blot for NKCC2 and VAMP3 with rabbit antibodies.

These are yes or no findings as the source states them, for the method shown. Binding seen in cells or lysates may run through a third protein. Some results given as binding are weak or reduced against the parent protein; the word gives no strength.

As to “Vesicle-associated membrane protein 3 (VAMP3) (from UniProt P63025 1-103)”, in test [1], the binding result is on record as “binds”.

B1: Na+/K+/2Cl- co-transporter NKCC2 (protein, UniProt P55016 1-1095)
chain: T1 sequence
As to B1, the binding entry in test [2] is recorded as “binds”.
